Reference: patent US10793563B2, “GCN2 inhibitors and uses thereof” (Merck Patent GmbH, priority 2018, dated 2020)
The structures given here were assigned with low confidence; some may be wrong.

Sequences of proteins named here, by UniProt entry; tags and fusion partners are left off.
UniProt Q9P2K8, whole entry: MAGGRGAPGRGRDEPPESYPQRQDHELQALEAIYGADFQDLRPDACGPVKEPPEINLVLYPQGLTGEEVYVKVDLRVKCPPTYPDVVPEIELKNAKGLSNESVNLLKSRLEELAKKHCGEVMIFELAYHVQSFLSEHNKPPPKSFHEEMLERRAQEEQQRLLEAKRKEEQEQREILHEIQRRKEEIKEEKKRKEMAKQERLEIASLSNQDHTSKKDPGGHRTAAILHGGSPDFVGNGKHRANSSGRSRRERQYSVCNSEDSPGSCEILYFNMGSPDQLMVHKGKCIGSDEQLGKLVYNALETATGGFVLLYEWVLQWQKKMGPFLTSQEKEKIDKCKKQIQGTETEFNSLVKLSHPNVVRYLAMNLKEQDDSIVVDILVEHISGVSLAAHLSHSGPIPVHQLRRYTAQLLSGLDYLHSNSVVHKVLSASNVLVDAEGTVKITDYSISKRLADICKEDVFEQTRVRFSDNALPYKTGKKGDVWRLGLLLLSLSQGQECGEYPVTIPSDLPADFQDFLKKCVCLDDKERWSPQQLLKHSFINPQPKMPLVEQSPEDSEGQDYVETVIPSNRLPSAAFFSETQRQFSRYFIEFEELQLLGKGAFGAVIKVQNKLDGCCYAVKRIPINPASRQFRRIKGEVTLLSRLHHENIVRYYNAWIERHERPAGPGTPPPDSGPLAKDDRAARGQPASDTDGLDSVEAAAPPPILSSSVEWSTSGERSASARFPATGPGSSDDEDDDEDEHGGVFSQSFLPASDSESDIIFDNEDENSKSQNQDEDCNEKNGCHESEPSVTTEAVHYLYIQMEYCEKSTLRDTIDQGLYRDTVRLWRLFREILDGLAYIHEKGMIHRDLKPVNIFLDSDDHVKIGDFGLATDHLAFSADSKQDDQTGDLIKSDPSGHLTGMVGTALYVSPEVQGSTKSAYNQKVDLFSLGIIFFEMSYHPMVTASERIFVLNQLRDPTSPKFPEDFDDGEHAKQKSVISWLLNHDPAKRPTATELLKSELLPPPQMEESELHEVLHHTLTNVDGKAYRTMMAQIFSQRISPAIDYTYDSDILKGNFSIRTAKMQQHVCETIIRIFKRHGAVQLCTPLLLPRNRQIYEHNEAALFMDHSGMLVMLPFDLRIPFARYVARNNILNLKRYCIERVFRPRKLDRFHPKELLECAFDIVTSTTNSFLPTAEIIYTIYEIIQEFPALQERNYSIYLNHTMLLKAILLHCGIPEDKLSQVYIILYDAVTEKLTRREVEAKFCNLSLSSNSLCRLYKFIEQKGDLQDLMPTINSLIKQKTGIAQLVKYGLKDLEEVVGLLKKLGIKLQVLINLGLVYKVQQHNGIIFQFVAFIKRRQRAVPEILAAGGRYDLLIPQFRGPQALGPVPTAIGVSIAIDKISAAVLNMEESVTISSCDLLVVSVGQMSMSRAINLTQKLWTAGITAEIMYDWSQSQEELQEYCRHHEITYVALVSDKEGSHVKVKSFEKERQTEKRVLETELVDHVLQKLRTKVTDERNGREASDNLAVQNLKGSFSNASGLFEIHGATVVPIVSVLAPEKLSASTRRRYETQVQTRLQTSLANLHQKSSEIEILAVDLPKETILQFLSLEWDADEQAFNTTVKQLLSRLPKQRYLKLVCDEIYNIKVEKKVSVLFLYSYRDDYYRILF

Target: GCN2 kinase (Homo sapiens (Human), UniProt Q9P2K8)
Experiment: GCN2 Enzyme Inhibition Assay (Transcreener ADP2 fluorescence polarization)
Assay type: biochemical
Conditions: read-out: GCN2 (IC50); 280 μM ATP, 200 μM (RS)7 peptide, 4 nM GCN2, 25° C.

IC50: 10 to 100 nM
Compound: C[C@@H]1C[C@H](N=S(C)(C)=O)CN(c2ccnc(-c3cnc4cc(F)c(C5CC5)cn34)n2)C1
